Laboratory results published in article PMC12040169 (PLOS Biology, 2025).
The list shows a part of the results.

Tested on: T1, CTL2-GFP (C. trachomatis L2/434/Bu, GFP-expressing)
T1 construct: L2/434/Bu, GFP-expressing
Set-up: species or system HeLa; Intracellular C. trachomatis growth in HeLa cells, bulk GFP fluorescence relative to DMSO
Conditions: bulk GFP, single well; 28.5 h, 10 µM; inhibitor

| SMILES | % of control remaining |
| --- | --- |
| Cc1ccc(SCCNCCN2CCOCC2)cc1 [CBK268581G] | 161.617% |
| COc1ccc(C(=O)OC(C)(C)C)c(-c2cncc(NCc3ccco3)n2)c1 [CBK037751] | 146.078% |
| COc1ccc(C(=O)Nc2ccc(N3CCNCC3)nc2)cc1 [CBK029434T] | 120.262% |
| COC(=O)c1cn(C(=O)c2snnc2C)nc1C(C)(C)C [CBK021420] | 120.085% |
| CCc1noc(C)c1C(=O)NCc1cccnc1N(C)C1CCCCC1 [CBK306804] | 128.389% |
| COc1cccc(NC(=O)CSc2nnc(CC(C)C)n2C)c1 [CBK269626] | 76.7371% |
| CC(C)(C)C(=O)Nc1ccc(C(=O)Nc2cccc(C(=O)O)c2)cc1 [CBK261329] | 115.607% |
| OCCN1CC2(CCN(Cc3cccc(Oc4ccccc4)c3)CC2)c2ccccc21 [CBK131528] | 125.841% |
| CC1(C)C2CCC1(CS(=O)(=O)N(Cc1ccccc1)Cc1ccccc1)C(=O)C2 (stereo not drawn) [CBK266082] | 93.9787% |
| CC(C(=O)c1ccc(-c2ccccc2F)cc1)N1CCN(c2ccc(C#N)cc2)CC1 (stereo not drawn) [CBK074706] | 76.2871% |
| Cc1nn(C)cc1CN1CCCC(c2cc3ccccc3cn2)C1 (stereo not drawn) [CBK285041] | 94.1678% |
| COc1ccc(C2(C(=O)NCc3ccc(Cl)c(Cl)c3)CC2)cc1 [CBK149827] | 91.7426% |
| CCOC(=O)CN1CCC(Oc2cncc(OCc3ccc(Cl)c(Cl)c3)n2)C1 (stereo not drawn) [CBK084432] | 120.757% |
| COc1ccccc1CC(CC(=O)O)C(=O)O (stereo not drawn) [CBK261508] | 100.438% |
| COc1cc2c(cc1OC)CN(C(=O)c1ccccn1)CC2 [CBK115864] | 185.218% |
| COC(=O)CCn1c(-c2ccccn2)cc2cccnc21 [CBK282634] | 109.504% |
| N#CCCN(Cc1ccccc1)C(=O)c1ccccc1[N+](=O)[O-] [CBK264434] | 108.994% |
| CC(=O)Nc1c(O)nc(SCC(=O)Nc2ccc(Cl)cc2)[nH]c1=O [CBK266214] | 97.7977% |
| Nc1c(C(=S)c2cccs2)oc2c1C(c1ccccc1)CC(=O)N2 (stereo not drawn) [CBK020690] | 142.965% |
| CN(CCCc1nc(-c2ccc(Cl)cc2)no1)S(=O)(=O)c1ccc([N+](=O)[O-])cc1 [CBK267365] | 160.042% |
| NCCNc1ccc([N+](=O)[O-])c(Sc2nc3ccccc3[nH]2)c1 [CBK265882] | 109.675% |
| CN(C)C(=O)n1cc(Cl)c(-c2ccccc2)n1 [CBK004985] | 77.0995% |
| CCc1ccc(C(=O)c2ccccc2C(=O)O)cc1 [CBK010776] | 101.517% |
| COc1cc(CN2CCN(Cc3cccc4ccccc34)CC2)c([N+](=O)[O-])cc1OC [CBK074450G] | 110.984% |
| COCC(=O)N1CCN2C(=O)c3ccccc3NC(=O)[C@@H]2C1 [CBK289582] | 137.197% |
| CC(=O)Nc1cccc(-c2cn3ccnc3c(N[C@@H](CO)C(C)C)n2)c1 [CBK036605] | 168.531% |

Among those listed so far, two have an NH in an aromatic ring.

| SMILES | % of control remaining |
| --- | --- |
| CC(=O)Nc1c(O)nc(SCC(=O)Nc2ccc(Cl)cc2)[nH]c1=O [CBK266214] | 97.7977% |
| NCCNc1ccc([N+](=O)[O-])c(Sc2nc3ccccc3[nH]2)c1 [CBK265882] | 109.675% |

Laid out differently: entries from further up
SMILES | % of control remaining
Nc1c(C(=S)c2cccs2)oc2c1C(c1ccccc1)CC(=O)N2 (stereo not drawn) [CBK020690] | 142.965%
CN(CCCc1nc(-c2ccc(Cl)cc2)no1)S(=O)(=O)c1ccc([N+](=O)[O-])cc1 [CBK267365] | 160.042%

Continuation.

| SMILES | % of control remaining |
| --- | --- |
| CCc1cccc(CC)c1NC(=O)CC1SC(NCc2ccc(C)cc2)=NC1=O (stereo not drawn) [CBK059431] | 104.955% |
| CC(=O)Nc1ccc(CN2CCC[C@H]2c2nc(-c3ccnc(NS(C)(=O)=O)c3)no2)cc1 [CBK288888] | 111.489% |
| O=C1CC(c2nc3ccccc3n2CCc2ccccc2)CN1c1ccccc1 (stereo not drawn) [CBK266311] | 144.167% |
| Sc1nnc(-c2ccncc2)n1/N=C/c1c[nH]c2ccccc12 [CBK265272] | 100% |
| COc1ccc(S(=O)(=O)N(C)c2ccc(C(=O)NCc3ccccn3)cc2)cc1 [CBK269099] | 167.923% |
| CC(C)C(=O)N1CC2(CCN(Cc3nc4ccccc4s3)CC2)c2ccccc21 [CBK136980] | 95.3557% |
| Cc1cc(Cl)ccc1CNC(=O)c1ccc(-c2ccoc2)nc1 [CBK156254] | 115.705% |
| COc1cncc(-c2cncc(N[C@H](CO)C(C)C)n2)c1 [CBK065329] | 135.637% |
| Cc1ccc(OC(C)C(=O)NCc2ccccc2)cc1 (stereo not drawn) [CBK269016] | 162.457% |
| Cn1c2c(c(=O)n(C)c1=O)CN(CCN1CCNCC1)CN2 [CBK265218] | 100% |
| Cc1cc(NC(=O)c2cccc(Br)c2)nc2c1c(=O)oc1ccccc12 [CBK291238] | 146.175% |
| CC(C)C(CNCc1ccc(F)c(Cl)c1)c1ccnn1C (stereo not drawn) [CBK305130] | 95.2002% |
| Cc1nc(CN2CCN(CCc3ccccc3)CC2)cs1 [CBK126457] | 103.722% |
| CCN1CCN(C2CCN(Cc3ccccc3[N+](=O)[O-])CC2)CC1 [CBK264631G] | 100% |
| O=C(Nc1cccc(Cn2cccn2)c1)c1csc2ccccc12 [CBK268123] | 125.887% |
| COc1cccc(Cc2c(C)nc3c(C(=O)NCCCN4CCCC4=O)cnn3c2C)c1 [CBK162055] | 144.616% |
| Cc1cc(Cl)ccc1CNC(=O)c1ccccc1Nc1cccc(C(F)(F)F)c1 [CBK149544] | 96.2933% |
| O=C(CCCn1cccn1)N1CCCN(Cc2ccc(F)cc2)CC1 [CBK304641] | 115.318% |
| COc1ncc(-c2cnc3[nH]c(=O)n(C4CC4)c3n2)cn1 [CBK064908] | 226.479% |
| CCc1onc(C)c1C(=O)NCC1CCCCN1CC(C)C (stereo not drawn) [CBK305124] | 123.307% |
| Cc1nn(-c2cccc(Br)c2)c(C)c1[C@@H]1C=C[C@@H](NS(C)(=O)=O)C1 [CBK288806] | 160.142% |
| O=C(O)/C(O)=C/C(=O)c1ccc(F)cc1 [CBK261844] | 109.067% |
| Cc1cccc(OCCNC(=O)CN2CCCC2c2cnn(C)c2)c1 (stereo not drawn) [CBK305826] | 153.297% |
| O=C(Nc1ccncc1)OCCc1cccnc1 [CBK200125] | 112.386% |
| Cc1ccc(Cl)cc1NC(=N)NC(=N)N [CBK268049] | 131.077% |
